For experiment [1], the target named is SP1 (mouse (endogenous in tsA58-AVM)) (UniProt O89090). Briefly: condition: only cells treated with BSA, without TGFβ1; co-IP; as a1, but cells treated with BSA instead of TGFβ1 for 30 minutes; IP with anti-SP1 antibody, Western for SP1 and SMAD2.
Experiment [2] has the same target. Briefly: co-IP; tsA58-AVM cells under the restrictive condition treated with 5 ng/ml TGFβ1 for 30 minutes; lysate (50mM Tris-HCl pH 7.4, 0.1% Triton, 0.1% NP40, 0.1% Tween-20, 5mM EDTA, 10% glycerol) incubated with anti-SP1 antibody overnight at 4°C, Protein A/G beads; Western for SP1 and SMAD2.

Amino acid sequences for entries named in this document (tags omitted).
UniProt O89090: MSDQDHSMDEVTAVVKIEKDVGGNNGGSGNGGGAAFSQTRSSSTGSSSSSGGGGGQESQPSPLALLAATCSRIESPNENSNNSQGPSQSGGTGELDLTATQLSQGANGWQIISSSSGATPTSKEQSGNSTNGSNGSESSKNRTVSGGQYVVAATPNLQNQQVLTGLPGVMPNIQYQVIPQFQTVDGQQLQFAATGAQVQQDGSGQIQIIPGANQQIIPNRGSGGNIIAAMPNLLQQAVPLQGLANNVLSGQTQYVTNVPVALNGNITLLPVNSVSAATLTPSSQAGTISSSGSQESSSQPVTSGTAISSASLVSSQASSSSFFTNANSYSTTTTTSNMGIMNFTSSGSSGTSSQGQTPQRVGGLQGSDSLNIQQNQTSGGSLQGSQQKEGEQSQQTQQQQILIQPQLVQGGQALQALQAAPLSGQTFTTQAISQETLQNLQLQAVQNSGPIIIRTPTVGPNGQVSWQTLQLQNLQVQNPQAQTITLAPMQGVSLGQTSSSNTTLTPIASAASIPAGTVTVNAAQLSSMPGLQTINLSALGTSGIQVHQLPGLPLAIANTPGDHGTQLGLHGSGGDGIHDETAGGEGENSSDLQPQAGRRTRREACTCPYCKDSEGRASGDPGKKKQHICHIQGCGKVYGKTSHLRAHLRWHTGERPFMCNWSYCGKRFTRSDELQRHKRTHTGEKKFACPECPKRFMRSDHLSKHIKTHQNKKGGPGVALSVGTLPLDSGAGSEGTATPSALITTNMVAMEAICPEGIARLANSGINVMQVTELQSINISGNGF
UniProt Q62432: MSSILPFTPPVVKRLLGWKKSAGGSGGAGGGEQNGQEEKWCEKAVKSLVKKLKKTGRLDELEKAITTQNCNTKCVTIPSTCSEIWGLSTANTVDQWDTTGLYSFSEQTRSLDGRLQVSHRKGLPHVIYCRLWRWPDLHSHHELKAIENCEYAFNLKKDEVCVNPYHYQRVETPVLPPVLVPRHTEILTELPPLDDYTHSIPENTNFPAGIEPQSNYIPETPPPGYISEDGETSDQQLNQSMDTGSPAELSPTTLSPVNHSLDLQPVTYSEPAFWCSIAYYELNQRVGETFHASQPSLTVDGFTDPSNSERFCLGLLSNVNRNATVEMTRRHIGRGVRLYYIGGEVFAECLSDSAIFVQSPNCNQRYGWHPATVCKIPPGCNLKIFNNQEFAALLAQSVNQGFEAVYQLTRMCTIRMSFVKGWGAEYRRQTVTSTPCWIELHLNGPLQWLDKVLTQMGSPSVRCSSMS

Results are given in words; binding and its absence hold for the method and conditions named. In cells and extracts the contact can be indirect. Some entries that bind do so weakly or less than the wild type.

On to SMAD2 (from UniProt Q62432 1-467), for which the binding entry in experiment [1] is on record as “no binding”; in experiment [2], “binds”.
